Primary screen of a compound library

The chains behind the UniProt entries cited, without tags or fusion partners. Residues count along the entry.
UniProt A4I591, 1-473: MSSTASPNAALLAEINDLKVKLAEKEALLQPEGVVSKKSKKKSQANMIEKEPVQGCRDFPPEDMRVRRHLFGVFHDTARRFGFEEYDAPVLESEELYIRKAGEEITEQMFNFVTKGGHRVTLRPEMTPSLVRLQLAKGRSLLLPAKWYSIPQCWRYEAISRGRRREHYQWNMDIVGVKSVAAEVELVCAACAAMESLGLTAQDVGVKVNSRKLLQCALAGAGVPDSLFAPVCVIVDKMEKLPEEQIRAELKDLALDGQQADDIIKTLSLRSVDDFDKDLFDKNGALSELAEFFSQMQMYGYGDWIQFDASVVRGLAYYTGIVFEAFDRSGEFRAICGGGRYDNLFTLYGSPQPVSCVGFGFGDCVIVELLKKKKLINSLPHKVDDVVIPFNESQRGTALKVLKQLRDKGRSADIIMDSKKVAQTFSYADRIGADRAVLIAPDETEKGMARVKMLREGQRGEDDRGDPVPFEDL
UniProt I6X8D2, whole entry: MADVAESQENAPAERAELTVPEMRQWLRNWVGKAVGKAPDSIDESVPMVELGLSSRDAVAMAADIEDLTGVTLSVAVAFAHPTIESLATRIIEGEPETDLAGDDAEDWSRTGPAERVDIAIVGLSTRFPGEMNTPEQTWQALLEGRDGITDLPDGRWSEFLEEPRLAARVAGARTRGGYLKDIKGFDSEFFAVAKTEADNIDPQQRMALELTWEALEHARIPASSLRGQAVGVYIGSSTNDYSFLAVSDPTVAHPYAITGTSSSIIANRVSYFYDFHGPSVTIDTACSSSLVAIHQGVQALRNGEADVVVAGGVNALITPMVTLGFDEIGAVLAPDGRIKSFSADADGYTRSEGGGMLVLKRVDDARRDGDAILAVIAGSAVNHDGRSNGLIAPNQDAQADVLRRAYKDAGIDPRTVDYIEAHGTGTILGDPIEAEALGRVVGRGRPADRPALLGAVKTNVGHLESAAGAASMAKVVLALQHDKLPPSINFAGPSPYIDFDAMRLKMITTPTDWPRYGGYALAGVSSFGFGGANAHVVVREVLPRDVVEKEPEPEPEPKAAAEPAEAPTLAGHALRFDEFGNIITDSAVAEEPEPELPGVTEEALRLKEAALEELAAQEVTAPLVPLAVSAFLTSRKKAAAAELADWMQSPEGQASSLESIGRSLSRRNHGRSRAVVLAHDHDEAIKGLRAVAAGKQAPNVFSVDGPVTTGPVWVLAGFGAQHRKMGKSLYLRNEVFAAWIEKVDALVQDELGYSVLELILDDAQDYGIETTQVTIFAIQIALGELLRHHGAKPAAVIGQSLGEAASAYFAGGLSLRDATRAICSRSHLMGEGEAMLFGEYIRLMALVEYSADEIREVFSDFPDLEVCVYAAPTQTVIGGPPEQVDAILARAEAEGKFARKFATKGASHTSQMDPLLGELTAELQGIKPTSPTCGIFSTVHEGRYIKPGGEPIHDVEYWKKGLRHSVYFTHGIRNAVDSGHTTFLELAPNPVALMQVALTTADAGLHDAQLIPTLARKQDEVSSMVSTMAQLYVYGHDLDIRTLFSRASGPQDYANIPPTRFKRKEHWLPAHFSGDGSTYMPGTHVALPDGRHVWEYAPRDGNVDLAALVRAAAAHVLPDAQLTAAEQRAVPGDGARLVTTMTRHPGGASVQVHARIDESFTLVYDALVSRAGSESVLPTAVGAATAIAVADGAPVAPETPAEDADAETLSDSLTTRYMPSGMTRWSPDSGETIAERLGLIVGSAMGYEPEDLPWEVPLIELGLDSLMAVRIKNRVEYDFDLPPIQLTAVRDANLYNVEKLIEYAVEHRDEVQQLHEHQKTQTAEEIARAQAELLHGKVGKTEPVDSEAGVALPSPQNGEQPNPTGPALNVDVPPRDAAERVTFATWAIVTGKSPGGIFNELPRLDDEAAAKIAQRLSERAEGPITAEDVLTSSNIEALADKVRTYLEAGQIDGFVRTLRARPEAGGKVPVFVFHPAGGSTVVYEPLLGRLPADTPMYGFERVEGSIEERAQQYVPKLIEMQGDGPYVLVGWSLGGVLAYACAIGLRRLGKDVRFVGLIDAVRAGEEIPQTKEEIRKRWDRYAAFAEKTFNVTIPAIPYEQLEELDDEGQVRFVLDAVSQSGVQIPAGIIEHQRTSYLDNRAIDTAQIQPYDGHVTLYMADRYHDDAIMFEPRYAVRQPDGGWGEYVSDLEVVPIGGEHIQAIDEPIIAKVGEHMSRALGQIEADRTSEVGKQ
UniProt P9WFT3, whole entry: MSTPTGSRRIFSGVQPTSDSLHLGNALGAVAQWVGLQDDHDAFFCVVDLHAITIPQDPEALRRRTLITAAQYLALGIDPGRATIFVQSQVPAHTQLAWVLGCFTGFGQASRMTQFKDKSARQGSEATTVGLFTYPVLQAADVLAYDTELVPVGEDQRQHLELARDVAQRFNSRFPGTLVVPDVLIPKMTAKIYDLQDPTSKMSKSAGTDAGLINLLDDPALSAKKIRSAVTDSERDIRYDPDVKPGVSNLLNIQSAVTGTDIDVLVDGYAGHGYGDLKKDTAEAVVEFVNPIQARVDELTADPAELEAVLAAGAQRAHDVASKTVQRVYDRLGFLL
UniProt Q4DA54, 1-478: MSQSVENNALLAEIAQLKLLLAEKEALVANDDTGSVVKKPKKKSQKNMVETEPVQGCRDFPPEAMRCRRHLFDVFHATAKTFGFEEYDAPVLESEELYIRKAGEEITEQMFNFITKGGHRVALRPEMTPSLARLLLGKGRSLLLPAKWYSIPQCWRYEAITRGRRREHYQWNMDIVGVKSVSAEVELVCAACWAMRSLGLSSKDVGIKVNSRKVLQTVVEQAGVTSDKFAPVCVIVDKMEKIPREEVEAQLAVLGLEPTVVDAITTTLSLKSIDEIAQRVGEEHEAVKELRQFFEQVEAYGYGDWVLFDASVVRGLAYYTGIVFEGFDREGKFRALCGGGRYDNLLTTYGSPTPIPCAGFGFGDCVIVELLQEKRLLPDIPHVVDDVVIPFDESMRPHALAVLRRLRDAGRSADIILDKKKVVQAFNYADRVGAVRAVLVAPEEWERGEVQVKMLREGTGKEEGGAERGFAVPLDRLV

The values are deposited in ChEMBL (CHEMBL3988442, “University of Dundee, Small-Polar-MMV Screening Library” (2021)).

LiHisRS: 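Enzyme assay of histidyl-tRNA synthetase; the read-out is not stated. Target: Histidine-tRNA ligase, Leishmania infantum (UniProt A4I591). Tested at 30 µM. The record gives no direction; compounds that gave an IC50 in retests scored well above the rest, so higher reads as stronger inhibition. The assay is labelled LdHisRS but filed under L. infantum. Of about 69,000 compounds tested this way, about 410 (0.6%) reached 50% or more in at least one test.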
Pks13 thioesterase: 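Enzyme assay of the thioesterase domain of polyketide synthase 13; the read-out is not stated. Target: Polyketide synthase Pks13, Mycobacterium tuberculosis (UniProt I6X8D2). Compounds at 30 µM. Higher reads as stronger inhibition (inferred from which compounds were picked for retests). About 67,000 compounds were tested under these conditions; 0.46% (about 300) showed 50% or more at least once.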
MtTrpRS: 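Tryptophan-tRNA ligase, Mycobacterium tuberculosis (UniProt P9WFT3). Enzyme assay of tryptophanyl-tRNA synthetase; the read-out is not stated. Compounds at 10 µM. Direction is not recorded; retested compounds ran higher, which suggests that high means inhibition. Size under these conditions: about 65,000 compounds, about 64 of them at 50% or above in at least one test.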
TcHisRS: 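Enzyme assay of histidyl-tRNA synthetase; the read-out is not stated. Target: Histidine-tRNA ligase, Trypanosoma cruzi CL Brener (UniProt Q4DA54). Tested at 30 µM. Direction is inferred from retests: higher values go with stronger inhibition. About 69,000 compounds were tested under these conditions; 0.045% (about 31) showed 50% or more at least once.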

The filed quantity is “Percent Effect” (%). How 0% and 100% were set is not recorded. Most values in the screen are low, and negative values occur. Compounds were drawn at random from those tested, without regard to their results. A dash means the value is not listed here; it may have been measured.

| # | structure | LiHisRS | Pks13 thioesterase | MtTrpRS | TcHisRS |
|---|---|---|---|---|---|
| 1 | `CCCNC(=O)CCC(=O)N1CCC(c2n[nH]c(C3CC3)n2)CC1` | -1.613 | -7.648 | -2.342 | 1.149 |
| 2 | `COCCN(CCC#N)S(=O)(=O)c1ccc(F)cc1Cl` | 15.15 | -8.602 | -3.027 | 2.174 |
| 3 | `CCc1[nH]c2c(CNC(=O)C3CCN(C)C3)cc(C)cc2c1C` (centres undefined) | 5.833 | 7.525 | 0 | -6.763 |
| 4 | `CCc1nc(CN2CCCN(Cc3nnc(C4CC4)o3)CC2)no1` | 12.07 | -7.639 | -6.615 | 2.26 |
| 5 | `CCc1ccc(C(=O)NCCNc2ncccn2)cc1` | 2.632 | -38.86 | 13.14 | 0.578 |
| 6 | `CC(C)(C)NC(=O)C[C@@H]1CCNC[C@@H]1Cc1cc(C(C)(C)C)on1` | 8.333 | -20.05 | -2.323 | 3.483 |
| 7 | `O=C(C1=CC2(CCN(CCO)CC2)c2ccccc21)N1CCCC1` | 17.81 | -31.52 | -5.382 | 3.96 |
| 8 | `CN(CCSc1ccccc1)C(=O)c1cn2c(n1)CNCC2` | 23.4 | -18.09 | 1.206 | 13.29 |
| 9 | `Cc1cc(C)nc(NC(=O)C(C)Oc2ccc3c(c2)OCO3)n1` (centres undefined) | 4.717 | -17.99 | 3.397 | 0.8368 |
| 10 | `Cc1noc(C)c1-c1ccc(C2CCCN2CCC(N)=O)nc1` (centres undefined) | 1.053 | -0.1832 | -0.6377 | 4.478 |
| 11 | `COCCOC1CCN(C(=O)NCc2coc3ccccc23)CC1` | 7.692 | -26.9 | 1.201 | 3.333 |
| 12 | `Cn1cc(S(=O)(=O)N2CCC(OCCCc3ccccc3)C2)cn1` (centres undefined) | 7.563 | -3.921 | -3.85 | 8.824 |
| 13 | `Cc1cc2nc(C(C)C)cc(NCCNc3ncccc3C)n2n1` | -7.692 | -6.953 | -1.748 | 3.96 |
| 14 | `Cn1cc(CN2CCCN(CCCc3ccccc3)CC2)cn1` | 33.33 | -43.54 | -4.025 | 14.94 |
| 15 | `COc1cc(CN2CCC(O)(c3ccc(C)cn3)CC2)cc(Cl)c1OC` | -6.579 | 29.91 | 1.274 | 1.087 |
| 16 | `CCN(C(=O)CCc1ccc2[nH]ccc2c1)C1CC(=O)NC1=O` (centres undefined) | 7.229 | -13.32 | -3.451 | 6.077 |
| 17 | `COCCN1CC[C@@H]2CN(Cc3cccnc3OC)C[C@@H]2C1` | 19.23 | -41.2 | - | 7.263 |
| 18 | `COc1ccc(-c2noc([C@@H](C)NC(=O)NC(C)(C)C)c2C(=O)O)cc1` | 12.16 | 3.353 | 0.9863 | 3.261 |
| 19 | `COc1ccc(C(=O)C2CCCN(c3cc(C#N)ccn3)C2)cc1F` (centres undefined) | 14.52 | 0.1785 | 0.6006 | 0 |
| 20 | `Cc1cccc(SC2CCN(C(=O)CCNS(C)(=O)=O)CC2)c1` | 19.57 | 4.318 | -2.894 | 3.96 |
| 21 | `Cc1nc2c(c(NCc3ccccc3)n1)CCN(C(=O)NC(C)C)CC2` | 4.918 | -14.18 | -1.26 | 3.03 |
| 22 | `CN(CCc1ccncc1)CCc1nccs1` | 4 | -13.13 | -1.877 | 5.82 |
| 23 | `CC(=O)N1CCC(NC2(Cc3cc(CN(C)C)on3)COC2)CC1` | -8.333 | 34.31 | 3.81 | 2.488 |
| 24 | `CCn1nc(C)c2nc(C)nc(NCCc3ccccc3)c21` | 12.9 | 22.4 | 0.5833 | 11.92 |
| 25 | `COCc1ccccc1C(=O)NCC(O)c1ccc(Cl)s1` (centres undefined) | 19.18 | -11.55 | -2.23 | 4.865 |
| 26 | `CN1C(=O)C(C)(C)COc2cc(NS(=O)(=O)c3ccccc3)ccc21` | 13.46 | -17.23 | -3.778 | 2.479 |
| 27 | `Cc1csc(C(C)(C)NCCCS(C)(=O)=O)n1` | 5.759 | -39.25 | -8.574 | 3.743 |
| 28 | `Cc1cc(C(=O)N2CCn3cc(CN4CCN(C)CC4)nc3C2)no1` | 14 | -4.512 | -2.346 | 7.843 |
| 29 | `O=C1COC2(CCN(Cc3ccoc3)CC2)CN1c1ccccc1` | 26.6 | 9.375 | 0.7656 | 11.06 |
| 30 | `CC(Cc1cnccn1)NC(=O)COc1ccc(F)cc1F` (centres undefined) | -2.198 | -11.01 | 0.9272 | 6.627 |
| 31 | `CC(C)n1nnc(CC(=O)NCC2(c3ccccc3F)CCCC2)n1` | 7.246 | -3.674 | -7.464 | 6.061 |
| 32 | `Nc1cc(-c2c[nH]nc2C2CCCCN2C(=O)C2CCCC2)ccn1` (centres undefined) | 10.07 | -15.67 | -2.604 | 5.747 |
| 33 | `Cc1n[nH]c(C)c1Sc1ccccc1NC(=O)N1CCOCC1` | 17.2 | 6.465 | 2.564 | 8.642 |
| 34 | `CN(CCCc1cnn(C)c1)Cc1cc2n(n1)CCCNC2` | 15.29 | -12.11 | 3.634 | 9.045 |
| 35 | `O=C(Cc1ccc(Cl)s1)Nc1ccc2c(c1)C(=O)NC2=O` | 17.33 | 11.52 | -4.021 | 0.5291 |
| 36 | `CC(C)(C)[S+]([O-])CCNC(=O)c1ccc(Cl)c2cccnc12` (centres undefined) | 17.95 | -32.77 | -9.034 | -1.149 |
| 37 | `Cc1cc(N2CC(c3n[nH]c4nccnc34)C2)ncn1` | 9.474 | 8.813 | 0.5217 | 5.224 |

Some entries from above, unchanged:

- CN(CCc1ccncc1)CCc1nccs1 | LiHisRS: 4%; Pks13 thioesterase: -13.13%; MtTrpRS: -1.877%; TcHisRS: 5.82%
- Cc1nc2c(c(NCc3ccccc3)n1)CCN(C(=O)NC(C)C)CC2 | LiHisRS: 4.918%; Pks13 thioesterase: -14.18%; MtTrpRS: -1.26%; TcHisRS: 3.03%
- CC(Cc1cnccn1)NC(=O)COc1ccc(F)cc1F (centres undefined) | LiHisRS: -2.198%; Pks13 thioesterase: -11.01%; MtTrpRS: 0.9272%; TcHisRS: 6.627%